Results published in PMC4639896.
Where a chain is given by its changes, count along the chain named. Results are given in words; binding and its absence hold for the method and conditions named. For part of these data: In cells and extracts the contact can be indirect. Some results given as binding are weak or reduced against the parent protein; the word gives no strength. Where a sequence is shown, tags or fusion partners need not be part of it.

Protein sequences, listed by entry. Tags and fused reporters are not part of them.
UniProt Q9FY48: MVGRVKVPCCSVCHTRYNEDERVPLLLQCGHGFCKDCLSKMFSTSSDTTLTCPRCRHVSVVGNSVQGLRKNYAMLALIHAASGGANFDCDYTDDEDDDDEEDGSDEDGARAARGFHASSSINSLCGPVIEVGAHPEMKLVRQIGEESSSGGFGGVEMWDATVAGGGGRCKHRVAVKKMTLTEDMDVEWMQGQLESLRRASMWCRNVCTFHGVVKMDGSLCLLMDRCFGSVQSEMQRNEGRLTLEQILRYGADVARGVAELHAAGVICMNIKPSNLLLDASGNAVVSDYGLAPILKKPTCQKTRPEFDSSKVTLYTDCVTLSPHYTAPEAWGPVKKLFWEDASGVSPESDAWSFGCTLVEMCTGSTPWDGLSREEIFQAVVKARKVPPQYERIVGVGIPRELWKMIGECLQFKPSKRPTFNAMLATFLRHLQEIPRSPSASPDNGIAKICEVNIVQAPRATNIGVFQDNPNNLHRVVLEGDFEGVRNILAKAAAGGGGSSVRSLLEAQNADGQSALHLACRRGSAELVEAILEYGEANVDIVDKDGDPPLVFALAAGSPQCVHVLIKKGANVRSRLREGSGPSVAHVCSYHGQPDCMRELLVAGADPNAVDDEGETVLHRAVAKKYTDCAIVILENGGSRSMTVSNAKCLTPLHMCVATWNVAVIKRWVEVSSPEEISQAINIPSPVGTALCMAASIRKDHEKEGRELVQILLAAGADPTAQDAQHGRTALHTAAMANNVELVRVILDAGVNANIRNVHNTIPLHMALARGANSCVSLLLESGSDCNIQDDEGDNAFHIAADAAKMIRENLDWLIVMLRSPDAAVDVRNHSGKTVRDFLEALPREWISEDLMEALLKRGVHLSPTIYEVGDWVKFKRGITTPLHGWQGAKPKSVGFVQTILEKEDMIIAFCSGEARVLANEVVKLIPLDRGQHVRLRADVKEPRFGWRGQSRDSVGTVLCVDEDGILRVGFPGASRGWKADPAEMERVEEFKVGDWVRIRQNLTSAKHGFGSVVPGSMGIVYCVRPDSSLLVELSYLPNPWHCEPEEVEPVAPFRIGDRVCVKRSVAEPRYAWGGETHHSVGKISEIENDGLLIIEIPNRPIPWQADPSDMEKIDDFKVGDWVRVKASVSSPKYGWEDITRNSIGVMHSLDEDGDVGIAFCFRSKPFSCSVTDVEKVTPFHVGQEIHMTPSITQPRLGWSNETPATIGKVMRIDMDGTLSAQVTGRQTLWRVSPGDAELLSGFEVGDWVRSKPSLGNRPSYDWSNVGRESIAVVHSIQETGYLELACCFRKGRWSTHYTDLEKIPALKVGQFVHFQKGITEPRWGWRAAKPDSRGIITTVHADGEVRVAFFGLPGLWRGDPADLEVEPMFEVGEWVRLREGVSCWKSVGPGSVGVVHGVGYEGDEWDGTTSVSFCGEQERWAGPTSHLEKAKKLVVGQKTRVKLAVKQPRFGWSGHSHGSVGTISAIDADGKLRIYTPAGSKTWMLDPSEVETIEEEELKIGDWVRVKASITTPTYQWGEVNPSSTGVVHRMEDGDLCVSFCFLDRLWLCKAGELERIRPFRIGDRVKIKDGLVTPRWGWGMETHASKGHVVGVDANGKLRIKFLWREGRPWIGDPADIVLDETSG

B1: ABI5 (ABA … 5, basic leucine zipper transcription factor), yeast two-hybrid fusion (protein, UniProt Q9SJN0 1-442)
chain: MVTRETKLTSEREVESSMAQARHNGGGGGENHPFTSLGRQSSIYSLTLDEFQHALCENGKNFGSMNMDEFLVSIWNAEENNNNQQQAAAAAGSHSVPANHNGFNNNNNNGGEGGVGVFSGGSRGNEDANNKRGIANESSLPRQGSLTLPAPLCRKTVDEVWSEIHRGGGSGNGGDSNGRSSSSNGQNNAQNGGETAARQPTFGEMTLEDFLVKAGVVREHPTNPKPNPNPNQNQNPSSVIPAAAQQQLYGVFQGTGDPSFPGQAMGVGDPSGYAKRTGGGGYQQAPPVQAGVCYGGGVGFGAGGQQMGMVGPLSPVSSDGLGHGQVDNIGGQYGVDMGGLRGRKRVVDGPVEKVVERRQRRMIKNRESAARSRARKQAYTVELEAELNQLKEENAQLKHALAELERKRKQQYFESLKSRAQPKLPKSNGRLRTLMRNPSCPL
B2: ABI5C153S, yeast two-hybrid fusion (protein, UniProt Q9SJN0 1-442)
chain: B1 chain with C153S
B3: cMyc-ABI5 (transgenic, 35S:cMyc-ABI5) (protein, UniProt Q9SJN0 1-442)
chain: B1 chain
B4: cMyc-ABI5C153S (transgenic, 35S:cMyc-ABI5C153S) (protein, UniProt Q9SJN0 1-442)
chain: B1 chain with C153S

Assays:
[1] = biological target: ABI5 (ABA … 5, basic leucine zipper transcription factor), yeast two-hybrid fusion (Arabidopsis thaliana) (UniProt Q9SJN0); experiment: two-hybrid; ABI5 and ABI5C153S in pDEST22 (prey) and pDEST32 (bait); mating, diploids spotted on DOB-L-W-Histidine ± 3-AT, 28 °C; also in the presence of NO-related compounds
[2] = biological target: ABI5C153S, yeast two-hybrid fusion (Arabidopsis thaliana) (UniProt Q9SJN0); experiment: as above
[3] = biological target: KEG-HA (KEEP ON GOING E3 ligase) (Arabidopsis thaliana) (UniProt Q9FY48); experiment: co-IP; KEG-HA extract (1 mg, treated with 1 mM GSNO) captured on anti-HA Affinity Matrix, beads washed, then incubated 2 h at 4 °C with 1 mg of ABI5 or ABI5C153S soluble proteins treated with 1 mM GSNO; lysis buffer 100 mM Tris-HCl pH 7.5, 150 mM NaCl, 0.1% Tween-20; detection with anti-MYC
[4] = biological target: T1, FLAG-CUL4 (CULLIN4) (Arabidopsis thaliana) (UniProt Q8LGH4); experiment: co-IP; FLAG-CUL4 extract (1 mg, treated with 1 mM GSNO) captured on anti-FLAG M2 Matrix, beads washed, then incubated 2 h at 4 °C with 1 mg of ABI5 or ABI5C153S soluble proteins treated with 1 mM GSNO; lysis buffer 100 mM Tris-HCl pH 7.5, 150 mM NaCl, 0.1% Tween-20; detection with anti-MYC
T1 sequence: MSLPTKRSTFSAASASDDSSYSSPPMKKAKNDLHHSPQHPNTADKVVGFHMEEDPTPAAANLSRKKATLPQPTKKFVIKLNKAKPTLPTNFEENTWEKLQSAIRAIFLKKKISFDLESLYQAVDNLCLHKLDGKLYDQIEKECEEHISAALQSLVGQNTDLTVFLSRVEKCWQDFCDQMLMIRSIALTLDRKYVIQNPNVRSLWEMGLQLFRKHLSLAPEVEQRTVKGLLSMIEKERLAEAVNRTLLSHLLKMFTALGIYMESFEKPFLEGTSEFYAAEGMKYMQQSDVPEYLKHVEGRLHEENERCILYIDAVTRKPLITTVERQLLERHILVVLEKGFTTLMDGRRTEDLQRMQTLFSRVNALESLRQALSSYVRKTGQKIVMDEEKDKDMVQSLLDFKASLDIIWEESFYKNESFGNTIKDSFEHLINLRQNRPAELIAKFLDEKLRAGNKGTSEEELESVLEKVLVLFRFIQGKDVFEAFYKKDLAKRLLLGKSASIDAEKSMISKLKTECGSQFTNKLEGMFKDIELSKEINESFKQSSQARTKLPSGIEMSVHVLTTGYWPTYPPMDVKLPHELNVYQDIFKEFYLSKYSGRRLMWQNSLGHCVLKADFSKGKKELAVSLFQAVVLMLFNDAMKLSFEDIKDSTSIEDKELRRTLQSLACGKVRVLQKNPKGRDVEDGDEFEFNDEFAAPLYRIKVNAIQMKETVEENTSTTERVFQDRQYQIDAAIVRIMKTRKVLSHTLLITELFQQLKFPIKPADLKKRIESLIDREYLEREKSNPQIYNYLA

| Binder | binding [1] | binding [2] | binding [3] | binding [4] |
| --- | --- | --- | --- | --- |
| B1 | binds | – | – | – |
| B2 | – | binds | – | – |
| B3 | – | – | binds | binds |
| B4 | – | – | no binding | no binding |
